Some entries share one result that the patent states for a list of compounds.
test system: HUVEC (human umbilical vein endothelial cell); assay: Inhibiting activity on cell proliferation, SRB analysis (HUVEC); assay type: cell-based; conditions: relative to CKD-731
Experimental: In order to compare the safety index (SI) of CPAE (calf pulmonary artery endothelial cell) with that of HUVEC (human umbilical vein endothelial cell), L5178Y lymphoma that was isolated from murine thymus was used. The safety index was defined as IC50 ratio of L5178Y against CPAE (IC50L5178Y/IC50CPAE). All cell lines, which had been kept in liquid nitrogen tank, were used after being thawed and subcultured 2˜3 times in T-flask. CPAE, HUVEC and L5178Y were cultured in MEM culture medium (20% FBS, 50˜100 μg/ml ECGS, 0.15% baking soda, 0.05 mg/ml gentamicin), M199 culture medium (20% FBS, 0.22% baking soda, 100 μg/ml heparin, 3 ng/ml bFGF, 0.05 mg/ml gentamicin) and RPMI 1640 culture medium (10% FBS, 0.2% baking soda, 0.05 mg/ml gentamicin), respectively, under the condition of 37° C. and 5% CO2.
The drug was prepared by being gradationally diluted to two or ten times by using PBS, 20 μl of the solution was added to each well of 96 well plate in triplicate. The cell, which is being incubated, was treated with trypsin to give cell suspension. The number of cell thereafter was counted. And 180 μl of the solution was inoculated to each well and cultured.
The cell was cultured with drugs for 3 days and then 50 μl of 50% TCA was added thereto (final concentration 10%). Subsequently the cell was fixed by being left alone at 4° C. for 1 hour. The well was washed 4 times by distilled water and then dried. After that 100 μl of SRB (Sulforhodamine B, Sigma Chemical Co.) solution (0.4% w/v in 1% acetic acid) was added thereto and then it was left alone at ordinary temperature for 30 minutes. Thereafter the well was washed 4 times by 1% acetic acid and dried. And then after adding 200 μl of 10 mM tris buffer, the absorbance at 570 nm was measured by automatic microplate reader (Model: Elx 808, Bio-Tek Instrument, INC). The viability was calculated from the ratio of the absorbance of the control to which drugs were not added and the well to which drugs were added.

| SMILES | effect compared to CKD-731 against HUVEC |
| --- | --- |
| CO[C@@H]1[C@H](OC(=O)/C=C/c2ccc(OCCO)cc2)CC[C@]2(CO2)[C@H]1[C@@]1(C)O[C@@H]1CC=C(C)C [Example 1, O-(4-(2-hydroxyethoxy)cinnamoyl)fumagillol] | 10˜100 times |
| COc1cc(/C=C/C(=O)O[C@@H]2CC[C@]3(CO3)[C@@H]([C@@]3(C)O[C@@H]3CC=C(C)C)[C@@H]2OC)cc(OC)c1OCCO [Example 2, O-(3,5-dimethoxy-4-(2-hydroxyethoxy)cinnamoyl)fumagillol] | 10˜100 times |
| COc1cc(/C=C/C(=O)O[C@@H]2CC[C@]3(CO3)[C@@H]([C@@]3(C)O[C@@H]3CC=C(C)C)[C@@H]2OC)ccc1OCCO [Example 3, O-(4-(2-hydroxyethoxy)-3-methoxycinnamoyl)fumagillol] | 10˜100 times |
| CO[C@@H]1[C@H](OC(=O)/C=C/c2ccc(OCCOCCO)cc2)CC[C@]2(CO2)[C@H]1[C@@]1(C)O[C@@H]1CC=C(C)C [Example 12, O-(4-(2-hydroxyethoxyethoxy)cinnamoyl)fumagillol] | 10˜100 times |
| CO[C@@H]1[C@H](OC(=O)/C=C/c2ccc(OCCCCO)cc2)CC[C@]2(CO2)[C@H]1[C@@]1(C)O[C@@H]1CC=C(C)C [Example 21, O-(4-(4-hydroxybutoxy)cinnamoyl)fumagillol] | 10˜100 times |

— patent US20100056623A1, “FUMAGILLOL DERIVATIVES OR METHOD FOR PREPARATION OF FUMAGILLOL DERIVATIVES, AND PHARMACEUTICAL COMPOSITIONS COMPRISING THE SAME” (CHONG KUN DANG PHARMACEUTICAL CORP., priority 2005, published 2010)
